These are yes or no findings as the source states them, for the method shown. In cells and extracts the contact can be indirect. Some binding calls cover weakened binding; strength is not graded here. Values belong to the substance of their own block, whether it stands above or below them.
Legend:
[1] = molecular target: endogenous GSK3β in H1299 cell lysate (human (endogenous in H1299)) (UniProt P49841); experiment: co-IP; H1299 cells transfected with Flag-hnRNPK, treated with or without TRAIL (20 ng/ml, 8 hours); precipitated with GSK3β antibody, blotted for Flag and GSK3β; lysis buffer 50 mM Tris pH 7.5, 150 mM NaCl, 1% NP-40, 0.5% deoxycholate, 0.1% SDS
[2] = molecular target: GST-hnRNPK fusion protein (UniProt P61978); experiment: pull-down; GST-hnRNPK (60 μg) immobilized on glutathione sepharose beads, incubated with 1.5 mg H1299 whole cell lysate protein overnight at 4 °C; Western blot with GSK3β and phospho-GSK3β (Ser9) antibodies; only the target purified
GST-GSK3β wt = GST-GSK3β wt (UniProt P49841); experiment: pull-down; H1299 cell lysates incubated with GST-GSK3β wt or GST-GSK3β S9A; hnRNPK trapped compared (Fig. S1); only the target purified
GST-GSK3β S9A = GST-GSK3β S9A (UniProt P49841); experiment: as above

Sequences of proteins named here, by UniProt entry; tags and fusion partners are left off. A change or cut given only in a name is not applied to a line headed by its entry.
UniProt P49841: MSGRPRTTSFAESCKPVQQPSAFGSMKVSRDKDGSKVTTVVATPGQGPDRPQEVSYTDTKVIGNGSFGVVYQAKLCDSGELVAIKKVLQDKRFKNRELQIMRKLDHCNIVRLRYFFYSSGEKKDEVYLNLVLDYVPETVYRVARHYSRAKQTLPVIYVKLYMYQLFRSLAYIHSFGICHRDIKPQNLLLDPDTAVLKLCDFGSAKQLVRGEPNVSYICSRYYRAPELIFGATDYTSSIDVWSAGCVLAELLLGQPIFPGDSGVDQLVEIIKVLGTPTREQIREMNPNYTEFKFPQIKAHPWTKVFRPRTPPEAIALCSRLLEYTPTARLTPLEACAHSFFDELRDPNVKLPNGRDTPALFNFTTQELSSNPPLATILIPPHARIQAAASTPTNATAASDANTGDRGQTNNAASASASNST

- binding [1]: binds
Substance: Flag-hnRNPK (from UniProt P61978 1-463)

- binding [2]: binds
Substance: endogenous GSK3β in H1299 cell lysate (from UniProt P49841 1-420)

- binding (GST-GSK3β wt): binds
- binding (GST-GSK3β S9A): binds
Substance: hnRNPK in H1299 cell lysates (from UniProt P61978 1-463)

- binding [2]: binds
Substance: phospho-GSK3β (Ser9), endogenous in H1299 cell lysate (from UniProt P49841 1-420)

Reference: paper PMC4789638
